The name of at least one read-out is uncertain. Residues, ends and D or L forms follow the SMILES beside them.
Assay: Membrane permeability of the peptide
Type: physicochemical
Conditions: requires a vehicle for delivery to cells

With CC[C@H](C)[C@H](NC(=O)[C@@H](NC(=O)[C@H](CC(C)C)NC(=O)[C@H](CO)NC(=O)[C@H](C)NC(=O)[C@@H](NC(=O)[C@H](CC(C)C)NC(=O)[C@@H](NC(=O)CNC(=O)[C@H](C)NC(=O)[C@@H](NC(=O)[C@H](Cc1ccccc1)NC(=O)[C@@H](NC(=O)[C@@H](NC(=O)[C@@H](NC(C)=O)C(C)C)[C@@H](C)O)[C@@H](C)CC)C(C)C)C(C)C)[C@@H](C)O)[C@@H](C)O)C(=O)N[C@@H](Cc1c[nH]c2ccccc12)C(=O)N[C@@H](CCCCN)C(=O)N[C@@H](CCCCN)C(=O)N[C@@H](CCSC)C(=O)NCC(N)=O [CT20] (Ac-VTIFVAGVLTASLTIWKKMG-NH2) the Membrane permeability was “not membrane permeable”.

— US12178840B2, “Method and compositions comprising a CT20 peptide” (UNIVERSITY OF CENTRAL FLORIDA RESEARCH FOUNDATION, INC., priority 2014, dated 2024)
